Experimental data from PubChem BioAssay AID1487 (National Center for Advancing Translational Sciences (NCATS), 2009).
This is one part of the list. Further columns of the screen follow, without active or inactive calls. Most of these compounds were active or inconclusive in the main read-out, so they are no random draw. Words in brackets tell the shape of the fitted curve; partial curves, single points and poor fits give uncertain potencies.

Assay: qHTS Assay for Modulators of Lamin A Splicing
Details: HeLa LMNA splicing GFP/RFP minigene ratio, 48 h
Outline: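 S3 HeLa stable clones carrying a lamin A-EGFP splicing minigene plus DsRed2 were seeded at 600 cells/well in Opti-MEM with 2% FBS, pin-dosed and incubated 48 h at 37°C. Acumen cytometry (488 nm) gave the GFP/RFP total-intensity ratio.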

[1] = measured here: GFP splicing reporter channel
[2] = measured here: RFP viability control channel

With CCCCc1ccc(NC(=S)N2CCCC(C)C2)cc1 (centres undefined) the AC50 [1] was 1.26 µM [falling, full curve, poor fit].

In the case of O=S(=O)(Nc1ccccc1N1CCCCC1)c1ccc(F)cc1, the AC50 [1] is reported as 5.62 µM [rising, partial curve].

In the case of CCCCN(CCCNC(=O)c1ccc2nc(N3CCOCC3)sc2c1)Cc1ccccc1, the AC50 [2] is reported as 11.2 µM [rising, partial curve].

For CNC(=O)c1ccsc1NC(=O)c1ccc2c(c1)CCCC2, the AC50 [2] was 5.62 µM [rising, partial curve].

For CNCCCOc1ccc(Cl)cc1C(C)(C)C, the AC50 [1] was 11.2 µM [falling, single point] and the AC50 [2] was 10 µM [falling, partial curve].

With CCC1CN(C(=O)N2CCC(C(=O)NCCc3ccccc3C)CC2)c2ccccc2O1 (centres undefined) the AC50 [1] was 10 µM [falling, partial curve, poor fit].

For Cc1cccc(-n2nnnc2SCC(=O)c2cc(C)n(Cc3ccco3)c2C)c1, the AC50 [1] was 17.8 µM [rising, single point].

In the case of CCOc1ccc(CN2CCN(C/C=C/c3ccc(OC)cc3)CC2CCO)cc1 (centres undefined), the AC50 [1] is reported as 0.126 µM [falling, partial curve, poor fit] and the AC50 [2] is reported as 0.00794 µM [falling, full curve, poor fit].

In the case of COc1ccc(C(=O)O/N=C(\N)Cc2ccc(Cl)cc2Cl)cc1OC, the AC50 [1] is reported as 25.1 µM [falling, single point] and the AC50 [2] is reported as 22.4 µM [falling, single point].

In the case of Cc1ccc2c(c1)nnn2C1CCN(CC(=O)Nc2ccccc2N2CCOCC2)CC1, the AC50 [2] is reported as 35.5 µM [rising, single point].

For COc1cccc(Cn2c(=O)c(-c3cc(F)cc(F)c3)nc3cnc(N4CCNCC4)nc32)c1, the AC50 [1] was 17.8 µM [falling, partial curve] and the AC50 [2] was 15.8 µM [falling, partial curve].

For O=C(CSCc1cccc(F)c1)N1CCN(c2ccccc2)CC1, the AC50 [2] was 14.1 µM [rising, single point].

With Cc1cc(Nc2ncc(Cl)cc2Cl)n(-c2ccccc2C)n1 the AC50 [1] was 31.6 µM [rising, single point] and the AC50 [2] was 31.6 µM [rising, single point].

With C=CCNC(=S)N/N=C/c1ccc(C)cc1C the AC50 [1] was 14.1 µM [rising, single point] and the AC50 [2] was 11.2 µM [rising, partial curve, poor fit].

In the case of Cc1[nH]c2ccccc2c1/C=N/Nc1ccccn1, the AC50 [2] is reported as 0.00447 µM [rising, full curve, poor fit].

For N#Cc1c2c(c(NCCCN3CCOCC3)n3c1nc1ccccc13)CCC2, the AC50 [1] was 12.6 µM [rising, partial curve, poor fit] and the AC50 [2] was 11.2 µM [rising, partial curve].

In the case of Cc1ccc(-c2noc(CSc3nnc(-c4ccncc4)n3-c3ccc(F)cc3)n2)cc1, the AC50 [2] is reported as 31.6 µM [rising, single point].

For O=C(CSc1ccc(-c2ccco2)nn1)c1cccc([N+](=O)[O-])c1, the AC50 [1] was 11.2 µM [rising, single point].

With CC(C)(C)NC(=O)CSc1nc2ccc(NC(=O)CSc3nnnn3Cc3ccccc3)cc2s1 the AC50 [2] was 6.31 µM [rising, full curve].

For Cc1cc(Cl)ccc1NNC(=O)c1snnc1C, the AC50 [2] was 0.0224 µM [falling, full curve, poor fit].

For O=C(CCc1nnc(C2(c3ccc(Cl)cc3)CCC2)o1)NC1CC1, the AC50 [2] was 14.1 µM [falling, partial curve, poor fit].

In the case of CN1CCc2nc3sc(C(=O)NCc4ccccc4)c(N)c3cc2C1, the AC50 [1] is reported as 50.1 µM [rising, single point].

In the case of CCN(CC)S(=O)(=O)c1ccc(N/N=C/c2cc(OC)ccc2O)nc1, the AC50 [1] is reported as 11.2 µM [rising, single point] and the AC50 [2] is reported as 12.6 µM [rising, partial curve].

In the case of Fc1cccc(NC(=S)NCc2ccc(Cl)cc2)c1, the AC50 [1] is reported as 11.2 µM [rising, partial curve, poor fit] and the AC50 [2] is reported as 35.5 µM [rising, single point].

For CCCCCCn1c(N(CC)CC)nc2c1c(=O)[nH]c(=O)n2C, the AC50 [2] was 15.8 µM [rising, single point].

In the case of CCCCOC(=O)CNc1nnc(SCC(=O)OCC)[nH]c1=O, the AC50 [1] is reported as 35.5 µM [falling, single point] and the AC50 [2] is reported as 35.5 µM [falling, single point].

For Cn1c(N=NC(=O)c2ccccc2)c(O)c2ccccc21, the AC50 [1] was 1.58 µM [rising, partial curve, poor fit] and the AC50 [2] was 0.158 µM [rising, full curve, poor fit].

With c1cc(CNC2C3CC4CC(C3)CC2C4)ccn1 (centres undefined) the AC50 [1] was 6.31 µM [falling, single point].

With CC(=O)N1CCN(S(=O)(=O)c2cccc(C(=O)Nc3nc4c(s3)CCCC4)c2)CC1 the AC50 [2] was 15.8 µM [rising, single point].

For CCN(CC)S(=O)(=O)c1ccc2c(c1)nc(CCC(=O)Nc1cccc(C(F)(F)F)c1)n2CC, the AC50 [2] was 0.00355 µM [falling, full curve, poor fit].

In the case of Cc1cccc(NC(=O)c2cc(-c3ccc(C)s3)nc3ccccc23)n1, the AC50 [1] is reported as 10 µM [rising, partial curve, poor fit] and the AC50 [2] is reported as 15.8 µM [rising, partial curve].

For Cc1cc(C)nc(-n2nc(C)cc2NC(=O)c2ccc(F)cc2F)n1, the AC50 [2] was 7.08 µM [rising, partial curve].

For O=C(/C=C/c1ccc(OCCCF)cc1)NCc1ccc(Cl)c(Cl)c1, the AC50 [1] was 35.5 µM [falling, single point] and the AC50 [2] was 22.4 µM [falling, single point].

In the case of CC(=O)Nc1ccc(S(=O)(=O)Oc2ccc(C(=S)N3CCC(O)CC3)cc2)cc1, the AC50 [1] is reported as 3.16 µM [rising, full curve, poor fit] and the AC50 [2] is reported as 11.2 µM [rising, partial curve].

For COc1ccc(O)c(CN2CCN(CCc3ccccc3)C(CCO)C2)c1 (centres undefined), the AC50 [2] was 0.0316 µM [falling, full curve, poor fit].
